PubChem BioAssay AID1259425 | University of Nebraska Medical Center | 2018
Test: 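Find knockdowns that reproduce the gene expression pattern seen when KSR1 is lost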 (primary screen). Cells: HCT116 human colon cancer cells. Reagents: siRNA pool against human genes, 50 nM siRNA. Measurement: 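After 50 nM siRNA pool, branched-DNA assay measures six marker transcripts per well, minus blank, normalised to the geometric mean of two housekeeping transcripts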. Scale: BNIP3L mRNA: higher = more BNIP3L transcript after knockdown; NDRG1 mRNA: higher = more NDRG1 transcript after knockdown; BNIP3 mRNA: higher = more BNIP3 transcript after knockdown; ALDOC mRNA: higher = more ALDOC transcript after knockdown; ACSL5 mRNA: higher = more ACSL5 transcript after knockdown.
The whole screen tested about 14,000 reagents; shown is a part drawn at random. The numbers tell different reagents against one gene apart. Reagent sequences are not shown. Not given: the time to read-out.

no.	target gene	pool no.	BNIP3L mRNA, set 1	NDRG1 mRNA, set 1	BNIP3 mRNA, set 1	ALDOC mRNA, set 1	ACSL5 mRNA, set 1
1	COA3	1	0.112	1.05	0.334	0.038	0.225
2	GZMM	1	0.414	0.934	1.01	0.0417	0.0856
3	CD58	1	0.241	0.212	0.592	0.0214	0.311
4	YY1	1	0.178	0.178	0.625	0.0158	0.28
5	NEU1	1	0.0737	0.299	0.174	0.021	0.103
6	PPA1	1	0.0882	0.266	0.221	0.0367	0.203
7	LEP	1	0.0568	0.294	0.264	0.0288	0.2
8	SHLD2	1	0.172	0.13	0.384	0.0277	0.135
9	TXNRD1	1	0.0714	0.115	0.276	0.026	0.109
10	UBXN7	1	0.121	0.236	0.545	0.0236	0.195
11	CPD	1	0.0585	0.115	0.343	0.0662	0.3
12	SORBS3	1	0.0494	0.167	0.31	0.0119	0.0878
13	TAGLN	1	0.0996	0.459	0.303	0.0286	0.103
14	CRP	1	0.0562	0.331	0.228	0.00913	0.184
15	SCAPER	1	0.0941	0.0833	0.278	0.0201	0.215
16	ABCD3	1	0.115	0.033	0.202	0.0174	0.0645
17	SIRT1	1	0.0886	0.0868	0.419	0.0202	0.0404
18	ILK	1	0.0623	0.25	0.33	0.0117	0.101
19	ILK	2	0.112	0.104	0.408	0.0164	0.274
20	CBLN1	1	0.129	0.168	0.323	0.0178	0.207

As entered above.
Under “ALDOC mRNA, set 1”, YY1 reads 0.0158
Result of ILK #1 in “NDRG1 mRNA, set 1”: 0.25
